Measured values from doi:10.1101/2020.04.27.064162.
These are yes or no findings as the source states them, for the method shown. For part of these data: Binding seen in cells or lysates may run through a third protein. Some results given as binding are weak or reduced against the parent protein; the word gives no strength.

Protein sequences, listed by entry. Tags and fused reporters are not part of them.
UniProt Q9NRN9, whole entry: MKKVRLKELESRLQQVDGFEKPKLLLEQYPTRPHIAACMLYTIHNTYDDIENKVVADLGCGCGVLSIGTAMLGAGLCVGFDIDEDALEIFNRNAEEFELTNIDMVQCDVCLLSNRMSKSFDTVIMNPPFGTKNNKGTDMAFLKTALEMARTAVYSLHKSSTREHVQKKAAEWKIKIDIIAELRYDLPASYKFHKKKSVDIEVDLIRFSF

Key:
[1] = target: T1, TRMT112 (endogenous) (human (endogenous in 293T)) (UniProt Q9UI30); assay: co-IP
T1 sequence: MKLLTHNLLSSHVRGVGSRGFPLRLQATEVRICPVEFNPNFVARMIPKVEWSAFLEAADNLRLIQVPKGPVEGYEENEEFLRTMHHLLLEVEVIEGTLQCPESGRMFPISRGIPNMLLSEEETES

[2] = target: METTL5 (untagged, endogenous) (UniProt Q9NRN9); assay: co-IP
[3] = target: recombinant METTL5 (of the METTL5/TRMT112 complex) (UniProt Q9NRN9); assay: SEC

In the case of “METTL5 (untagged, endogenous) (from UniProt Q9NRN9 1-209) (enzyme)”, the binding [1] is reported as “binds”.

B1: TRMT112 (endogenous) (protein, UniProt Q9UI30 1-125)
chain: T1 sequence
In the case of B1, the binding [2] is reported as “binds”.

B2: recombinant TRMT112 (of the METTL5/TRMT112 complex) (protein, UniProt Q9UI30 1-125)
chain: T1 sequence
B2 was tested, and the binding [3] was “binds”.
